In the test the target is NRF1^3xFLAG (FLAG-tagged NRF1; NF-E2-related factor 1, NFE2L1) (human) (UniProt Q14494). Kind of test: co-IP.

Amino acid sequences for entries named in this document (tags omitted). Residues count along the entry.
UniProt Q14494, residues 104-772: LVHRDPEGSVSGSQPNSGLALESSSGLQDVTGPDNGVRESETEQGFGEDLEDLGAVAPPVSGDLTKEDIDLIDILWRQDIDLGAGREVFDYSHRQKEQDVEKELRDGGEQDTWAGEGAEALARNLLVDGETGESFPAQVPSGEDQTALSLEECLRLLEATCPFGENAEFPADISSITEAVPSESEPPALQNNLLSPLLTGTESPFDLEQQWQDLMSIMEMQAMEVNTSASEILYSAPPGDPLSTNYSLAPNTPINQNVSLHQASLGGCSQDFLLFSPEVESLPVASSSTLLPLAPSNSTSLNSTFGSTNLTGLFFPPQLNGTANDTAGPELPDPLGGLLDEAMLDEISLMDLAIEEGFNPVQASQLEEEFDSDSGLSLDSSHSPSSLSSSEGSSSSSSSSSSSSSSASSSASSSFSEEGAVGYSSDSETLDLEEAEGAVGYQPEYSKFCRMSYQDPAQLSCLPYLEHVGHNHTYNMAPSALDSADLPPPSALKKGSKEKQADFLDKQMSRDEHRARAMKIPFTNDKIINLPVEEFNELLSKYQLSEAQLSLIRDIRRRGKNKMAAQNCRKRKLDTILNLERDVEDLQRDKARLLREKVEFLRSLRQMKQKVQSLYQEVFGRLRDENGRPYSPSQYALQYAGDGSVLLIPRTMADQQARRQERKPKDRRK
UniProt P28482: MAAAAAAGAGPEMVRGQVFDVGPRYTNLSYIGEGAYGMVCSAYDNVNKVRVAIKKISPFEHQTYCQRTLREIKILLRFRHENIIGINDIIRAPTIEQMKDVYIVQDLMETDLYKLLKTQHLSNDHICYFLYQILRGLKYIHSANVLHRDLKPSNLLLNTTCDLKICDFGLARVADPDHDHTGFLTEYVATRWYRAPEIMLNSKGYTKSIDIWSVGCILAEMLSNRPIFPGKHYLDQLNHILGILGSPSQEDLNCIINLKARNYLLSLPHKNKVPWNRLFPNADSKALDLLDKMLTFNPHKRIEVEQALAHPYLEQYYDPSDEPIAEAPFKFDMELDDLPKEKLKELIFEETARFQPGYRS

Results are given in words; binding and its absence hold for the method and conditions named. In cells and extracts the contact can be indirect. Some results given as binding are weak or reduced against the parent protein; the word gives no strength.

For “ERK2 (42 kDa form of ERK1/2) (from UniProt P28482 1-360) (enzyme)”, the binding result is listed as “binds”.

The record behind these values is article doi:10.1101/2021.01.04.425272.
